The chains behind the UniProt entries cited, without tags or fusion partners.
UniProt P20263: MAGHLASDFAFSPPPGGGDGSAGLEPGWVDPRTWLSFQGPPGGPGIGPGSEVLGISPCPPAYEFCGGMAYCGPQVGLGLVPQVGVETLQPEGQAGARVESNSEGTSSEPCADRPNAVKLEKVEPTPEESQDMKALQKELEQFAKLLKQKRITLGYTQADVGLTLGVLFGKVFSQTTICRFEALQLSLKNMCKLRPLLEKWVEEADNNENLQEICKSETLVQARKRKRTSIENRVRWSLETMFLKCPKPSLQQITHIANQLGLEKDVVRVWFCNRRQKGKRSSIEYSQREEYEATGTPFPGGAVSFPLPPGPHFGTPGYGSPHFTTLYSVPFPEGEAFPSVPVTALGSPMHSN

According to publication PMC2860244:

biological target: Oct4-FTAP fusion protein (mouse) (UniProt P20263); assay: affinity purification with mass spectrometry; one-step purification on anti-FLAG M2 Dynal beads from whole-cell extracts of Oct4-FTAP ESCs against unmodified control cells (AB2.2); 150 mM NaCl, 0.1% NP-40, 90 min, 4°C; elution with AcTEV protease; three independent purifications; LC-MS/MS

binding	Binder
binds	cyclic AMP-dependent transcription factor ATF-2 (protein, UniProt P16951 1-487) MSDDKPFLCTAPGCGQRFTNEDHLAVHKHKHEMTLKFGPARNDSVIVADQTPTPTRFLKNCEEVGLFNELASPFENEFKKASEDDIKKMPLDLSPLATPIIRSKIEEPSVVETTHQDSPLPHPESTTSDEKEVPLAQTAQPTSAIVRPASLQVPNVLLTSSDSSVIIQQAVPSPTSSTVITQAPSSNRPIVPVPGPFPLLLHLPNGQTMPVAIPASITSSNVHVPAAVPLVRPVTMVPSVPGIPGPSSPQPVQSEAKMRLKAALTQQHPPVTNGDTVKGHGSGLVRTQSEESRPQSLQQPATSTTETPASPAHTTPQTQNTSGRRRRAANEDPDEKRRKFLERNRAAASRCRQKRKVWVQSLEKKAEDLSSLNGQLQSEVTLLRNEVAQLKQLLLAHKDCPVTAMQKKSGYHTADKDDSSEDLSVPSSPHTEAIQHSSVSTSNGVSSTSKAEAVATSVLTQMADQSTEPALSQIVMAPPSQAQPSGS
binds	AT-rich interactive domain-containing protein 3B (protein, UniProt Q9Z1N7 1-568) MEPLQQQQQQQQQKQPQQPLLQMDAREKQGPQTRESQFLYASKLGTQPALLSITPGRPSGSSVLGPLARVPPATPVARMSEQSNVNSEPEEEEGGLEDEDGDDDVAEVAEKEAQAASKYFHMQKVTRQEPRATPMSSLLPVPGLSPQGQQTKEDHTKDASKAPPSVPTAGQPSWSLDEQLKQNGALAWSDDADGGRGREISRDFAKLYELDGDPERKEFLDDLFIFMQKRGTPINRIPIMAKQILDLYMLYKLVTEKGGLVEIINKKIWREITKGLNLPTSITSAAFTLRTQYMKYLYAYECEKKALSSPAELQAAIDGNRREGRRPSYSSSLFGYSPAAAAAAAAAAAAAAASAASAGTPALLSSPKIRFSILGLGSSSGTSASSPRIPPASTLRKGDGVPVPVPNRLAVSGTLAGQQAGNRPGPLEHLRERLESGEPPEKKASRLSEEEQRLVQQAFQRNLFSMARQLPMKIRINGREDRAEPSAPALNLTTSNIGSINMSVDIDGTTYTGVLFAQKPVVHLIAGSTPQSIGSSASSSNSSSSHCSPSPTSSRGTPSAEPSTSWSL
binds	Sal-like protein 3 (protein, UniProt Q62255 1-1320) MSRRKQAKPQHLKSDEELPPQDGASEHGVPGDGAEDADSGSESRSGSEETSVCEKCCAEFFKWADFLQHKKTCTKNPLVLIVHDDEPAPPSEDFPEPSPASSPSDRTESEVAEEVAPTEGSEVKAATKEAEPMDVEVSTDKGPPGPSVPPPPPALPPQPEPAAFSMPSTNVTLETLLSTKVAVAQFSQGARAGGTTGAGGSVGAVAIPMILEQLVALQQQQIHQLQLIEQIRSQVALMSRQPGPPLKPSASAPGTASVQLQGLTPHAALQLSAGPATASAGSGSTLPAAFDGPQHLSQPASGTSTPCSTSAAPPDSGAHPACSTGPAPGAVAAASSTVGNAVQPQNASTPPALGPGPLLSSASNLPNPLLPQTSSSSVIFPNPLVSIAATANALDPLSALMKHRKGKPPNVSVFEPKASAEDPFFKHKCRFCAKVFGSDSALQIHLRSHTGERPFKCNICGNRFSTKGNLKVHFQRHKEKYPHIQMNPYPVPEYLDNVPTCSGIPYGMSLPPEKPVTTWLDSKPVLPTVPTSVGLQLPPTVPGTHNYTDSPSITPVSRSPQRPSPASSECTSLSPGLNNTESGITVRPESPQPLLGGPSLTKAEPVSLPCTSTRTGDAPVVGGQVSGLPTSAATAVTDSACTSLGSPGLPAVSDQFKAQFPFGGLLDSMQTSETSKLQQLVENIDKKMTDPNQCVICHRVLSCQSALKMHYRTHTGERPFKCKICGRAFTTKGNLKTHFGVHRAKPPLRVQHSCPICQKKFTNAVVLQQHIRMHMGGQIPNTPLPEGLQEAMDADLPFDEKNAETLSSFDDDIDENSMEEDSELKDTASDSSKPLLSYSGSCPPSPPSVISSIAALENQMKMIDSVMNCQQLANLKSVENGSGESDRLSNDSSSAVGDLESRSAGSPALSESSSSQALSPAHSNGESFRSKSPGLGHQEDPQEIPLKTERLDSPPPGPGNGGALDLTAGHPGRPLIKEEAPFSLLFLSRERGKCASTVCGVCGKPFACKSALEIHYRSHTKERRFVCTVCRRGCSTMGNLKQHLLTHKLKELPSQVFDPNFTLGPSHSTPSLASSPAPTMIKMEVNGHSKAIALGEGPALPAGVQVPTGPQTVMSPGLAPMLAPPPRRTPKQHNCQSCGKTFSSASALQIHERTHTGEKPFGCTICGRAFTTKGNLKVHMGTHMWNNAPARRGRRLSVENPMALLGGDALKFSEMFQKDLAARAMNVDPSFWNQYAAAITNGLAMKNNEISVIQNGGIPQLPVSLGGGAIPPLGAMASGVDKARTGSSPPIVSLDKASSETGASRPFARFIEDNKEIGIN
binds	nuclear transcription factor Y subunit gamma (protein, UniProt P70353 1-335) MSTEGGFGGTSSSDAQQSLQSFWPRVMEEIRNLTVKDFRVQELPLARIKKIMKLDEDVKMISAEAPVLFAKAAQIFITELTLRAWIHTEDNKRRTLQRNDIAMAITKFDQFDFLIDIVPRDELKPPKRQEEVRQSVTPAEPVQYYFTLAQQPTAVQVQGQQQGQQTTSSTTTIQPGQIIIAQPQQGQTTPVTMQVGEGQQVQIVQAQPQGQAQQTQSGTGQTMQVMQQIITNTGEIQQIPVQLNAGQLQYIRLAQPVSGTQVVQGQIQTLATNAQQITQTEVQQGQQQFSQFTDGQQLYQIQQVTMPAGQDLAQPMFIQSANQPSDGQTPQVTGD
binds	zinc finger protein 219, isoform CRA_a (protein, UniProt Q6IQX8 1-726) MEGSRPRILVGHLEPSPPAFDGELDLQRYSNGPGVSGTPGPGSPGMGAVGWSETRAGERRFPCPVCGKRFRFNSILALHLRAHPGAQAFQCPHCGHRAAQRALLRSHLRTHQPERPRSPAARLLLELEERALLREARLGRARSSGGMQSSPAAEGLARPQVPSSSAFRCPFCKGKFRTSAERERHLHILHRPWKCSLCSFGSSQEEELLHHSLTAHGASERPLAATSTPEPPPPPQQEPRSALEPEPEPEPRPEPDREANPAPTPAPPEEPPAPPEFRCQVCGQSFTQSWFLKGHMRKHKASFDHACPVCGRCFKEPWFLKNHMKVHTSKLGPLRAPGPGSAPARAPQPPDLSLLAYEPLGPALLLAPAPAPAERREPPSLLGYLSVRAGEVRPNGEGADPGGGRSYGGFRPLPSALPNRARRHRTEEPEEEEEVVEAEEESWARGRSLGSLTSLHPNPGEGSGQPAPAAGTQARSTATQEENGLLVGGTRSEAGRGATGKDCPFCGKSFRSAHHLKVHLRVHTGERPYKCPHCDYAGTQSGSLKYHLQRHHREQRSSAGPGPPPEPPPPSQRGSLQPQSGAKPTQASATWVEGTASTRPPSSSTGPGSRRKPASPGRTLRNGRGGEAEPLDLSLRAGPGGEAGAGGALHRCLFCPFATGAPELMALHLQVHHSRRARGRRQPRADTSPTYVRAPSGETPPSPPLEEEGSPGLSRSGEAGLGGQER
binds	Zinc finger protein 513 (protein, UniProt Q6PD29 1-541) MPRRKQSHPQPVKCEGVKVDTEDSFDEGPGALVLESDLLLGQDLEFEEEEEEDEGDGHNDQLMGFERDSEGDSQGARPGLPYGLSDDESGGGRALSAESEVEEPARGPGEARGERPGPACQLCGGPTGEGPCCGAGGPGGGPPLPPRLLYSCRLCAFVSHYSSHLKRHMQTHSGEKPFRCGRCPYASAQLVNLTRHTRTHTGEKPYRCPHCPFACSSLGNLRRHQRTHTGPPTPPCPTCGFRCCAPRPTRPPSPTEQEGTMPRRSEDALILPDLSLHVPPGGASFLPDCGQLRGEGESLCGTGSEPLPELLFPWTCRGCGQELEEGEGSRLGAAMCGRCMRGEAGGVATGGPQGPGDKGFACSLCPFATHYPNHLARHMKTHSGEKPFRCARCPYASAHLDNLKRHQRVHTGEKPYKCPLCPYACGNLANLKRHGRIHSGDKPFRCSLCNYSCNQSMNLKRHMLRHTGEKPFRCATCAYTTGHWDNYKRHQKVHGHGGAGGPGLSAPEGWAPPHSPPSVLSTRGPAALGATGSRALHSDSP

No constants are given. Whether binding was seen depends on the method and setting. In cells and extracts the contact can be indirect. These calls come from enrichment with a bait or labelling near it, and not all partners need be listed.
